Here are results for 1 substance from US10961297 (SANFORD BURNHAM PREBYS MEDICAL DISCOVERY INSTITUTE, dated 2021).

Sequences of proteins named here, by UniProt entry; tags and fusion partners are left off. Residues count along the entry.
UniProt Q7TSA3, residues 30-306: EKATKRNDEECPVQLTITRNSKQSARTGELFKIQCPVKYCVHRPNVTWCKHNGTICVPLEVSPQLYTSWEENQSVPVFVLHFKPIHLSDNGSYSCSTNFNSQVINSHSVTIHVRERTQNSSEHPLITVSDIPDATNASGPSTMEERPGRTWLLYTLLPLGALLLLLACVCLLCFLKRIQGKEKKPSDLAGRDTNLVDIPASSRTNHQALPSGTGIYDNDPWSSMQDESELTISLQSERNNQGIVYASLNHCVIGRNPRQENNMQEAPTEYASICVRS
UniProt Q9QYH9: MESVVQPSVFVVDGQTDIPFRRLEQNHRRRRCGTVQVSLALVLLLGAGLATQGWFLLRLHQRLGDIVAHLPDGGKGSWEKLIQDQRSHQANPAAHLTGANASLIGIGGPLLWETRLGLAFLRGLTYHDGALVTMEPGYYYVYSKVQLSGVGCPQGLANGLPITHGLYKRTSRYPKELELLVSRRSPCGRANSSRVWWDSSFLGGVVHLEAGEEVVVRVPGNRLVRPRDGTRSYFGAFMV
UniProt Q80WM9, residues 39-210: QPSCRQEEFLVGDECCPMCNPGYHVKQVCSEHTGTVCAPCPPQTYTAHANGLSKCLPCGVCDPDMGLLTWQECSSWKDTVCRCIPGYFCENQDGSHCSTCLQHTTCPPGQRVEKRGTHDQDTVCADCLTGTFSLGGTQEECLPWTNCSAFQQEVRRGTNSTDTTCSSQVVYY

These are yes or no findings as the source states them, for the method shown. Some entries that bind do so weakly or less than the wild type.

Experiment [1] deals with mouse BTLA on 293T cells (mouse) (UniProt Q7TSA3). Kind of experiment: flow cytometry, mouse HVEM-Fc titrated on 293T cells transfected with mouse BTLA, anti-human Fc [panel B]. (In general: In flow cytometry, cells or beads pass a laser one at a time.)
The target in experiment [2] is mouse LIGHT on 293T cells (mouse) (UniProt Q9QYH9). As to the kind of experiment: flow cytometry, mouse HVEM-Fc titrated on 293T cells transfected with mouse LIGHT, anti-human Fc [panel C].

For WT (from UniProt Q80WM9) (Fc fusion), the binding entry in experiment [1] and in experiment [2] was “binds” each time.
